Source: patent US20180311220A1, “TREATMENT OF CANCERS WITH ACQUIRED RESISTANCE TO KIT INHIBITORS” (Bayer HealthCare LLC, priority 2007, published 2018)

Experiments:
Format in all cases: cell-based, murine
[1] = test system: Ba/F3 cells expressing human c-KIT exon 11 deletion + N822K; experiment: Ba/F3 cell proliferation assay (CellTiter-Glo), c-KIT exon 11 deletion + N822K; conditions: BaF3; Exon 11 + N822K; n ≥ 3; 72 h incubation; read-out: Average IC50 for c-KIT-expressing Ba/F3 cellular proliferation, Exon 11 + N822K
Text: (§1) The cDNA encoding full length human c-KIT with a deletion in exon 11 that removed amino acid residues 557-558 was ligated into the mammalian expression vector pClneo (Promega). Imatinib (Gleevec) -resistant variants of the KIT exon 11 deletion mutant were generated. All mutations were confirmed by DNA sequencing.
(§2) The expression vectors encoding the c-KIT exon 11 mutant or its Imatinib (Gleevec) -resistant mutant variants were transfected into Ba/F3 cells by electroporation. Selective pressure was applied to the transfected cells by removing IL-3 from the culture medium. After IL-independent populations, further selective pressure was applied by also growing the cells in the presence of 1 mg/mL G418. […] The stable pools were further characterized by sequencing genomic DNA to confirm the presence of the transfected c-KIT cDNA.
(§3) This assay utilizes cellular ATP as a marker for cell proliferation/viability. […] The cells were then incubated on a shaker for 5 minutes at room temperature, and luminescence was measured on a Victor 5 (Perkin Elmer) spectrophotometer.
(§4) Growth inhibition was measured by comparing luminescence signal from treated vs. untreated cells in assay plates, and the IC50 analysis of cell proliferation inhibition by compounds was analyzed using Analyze 5 in-house software. The IC50 values are mean values calculated from at least three experiments.

[2] = test system: Ba/F3 cells expressing human c-KIT exon 11 deletion + Y823D; experiment: Ba/F3 cell proliferation assay (CellTiter-Glo), c-KIT exon 11 deletion + Y823D; conditions: BaF3; Exon 11 + Y823D; n ≥ 3; 72 h incubation; read-out: Average IC50 for c-KIT-expressing Ba/F3 cellular proliferation, Exon 11 + Y823D
Text: as §1, §2, §3, §4

[3] = test system: Ba/F3 cells expressing human c-KIT exon 11 deletion + V654A; experiment: Ba/F3 cell proliferation assay (CellTiter-Glo), c-KIT exon 11 deletion + V654A; conditions: BaF3; Exon 11 + V654A; n ≥ 3; 72 h incubation; read-out: Average IC50 for c-KIT-expressing Ba/F3 cellular proliferation, Eson 11 + V654A
Text: as §1, §2, §3, §4

[4] = test system: Ba/F3 cells expressing human c-KIT exon 11 deletion + T6701; experiment: Ba/F3 cell proliferation assay (CellTiter-Glo), c-KIT exon 11 deletion + T6701; conditions: BaF3; Exon 11 +T6701; n ≥ 3; 72 h incubation; read-out: Average IC50 for c-KIT-expressing Ba/F3 cellular proliferation, Exon 11 +T6701
Text: as §1, §2, §3, §4

[5] = test system: Ba/F3 cells expressing human c-KIT exon 11 deletion + D816G; experiment: Ba/F3 cell proliferation assay (CellTiter-Glo), c-KIT exon 11 deletion + D816G; conditions: BaF3; Exon 11 + D816G; n ≥ 3; 72 h incubation; read-out: Average IC50 for c-KIT-expressing Ba/F3 cellular proliferation, Exon 11 + D816G
Text: as §1, §2, §3, §4

[6] = test system: Ba/F3 cells expressing human c-KIT with exon 11 deletion (residues 557-558); experiment: Ba/F3 cell proliferation assay (CellTiter-Glo), c-KIT exon 11 deletion; conditions: BaF3, n ≥ 3, 72 h incubation, read-out: Average IC50 for c-KIT-expressing Ba/F3 cellular proliferation, Exon 11 Deletion
Text: as §1, §2, §3, §4

Cc1ccc(NC(=O)c2ccc(CN3CCN(C)CC3)cc2)cc1Nc1nccc(-c2cccnc2)n1 [Imatinib, imatinib]
IC50 [1]: 221 nM | IC50 [2]: 295 nM | IC50 [3]: 168 nM | IC50 [4]: > 10000 nM | IC50 [5]: 87 nM | IC50 [6]: 5 nM
